This is one part of the list. The calls rarely recur for the same compound in another form.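 Kinases, fused to nanoluciferase, were expressed in K562 cells; luminescence was measured every 4 h from 2 to 18 h as percent of control (DMSO = 100%, positive control = 0%). A time point is decreased if signal falls significantly (2 sigma). Hits were called by the authors by a rule that is not shown; the count of time points alone does not decide it.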
How the values were obtained:
Assay in all cases: kinase-Nluc reporter destabilization hit call (1 = scored as downregulated) (binary); higher = compound decreases kinase abundance
Settings in all cases: K562; 2-18 h
[1] = target: IRAK3 (UniProt Q9Y616)
[2] = target: JAK1 (UniProt P23458)
[3] = target: LCK (UniProt P06239)
[4] = target: LIMK1 (UniProt P53667)
[5] = target: LIMK2 (UniProt P53671)
[6] = target: LMTK2 (UniProt Q8IWU2)
[7] = target: LYN (UniProt P07948)
[8] = target: MAP2K1 (UniProt Q02750)
[9] = target: MAP2K2 (UniProt P36507)
[10] = target: MAP4K2 (UniProt Q12851)

Protein sequences, listed by entry. Tags and fused reporters are not part of them. Lines headed by an entry give the natural chain unless they say otherwise; changes in a name come on top.
UniProt Q9Y616: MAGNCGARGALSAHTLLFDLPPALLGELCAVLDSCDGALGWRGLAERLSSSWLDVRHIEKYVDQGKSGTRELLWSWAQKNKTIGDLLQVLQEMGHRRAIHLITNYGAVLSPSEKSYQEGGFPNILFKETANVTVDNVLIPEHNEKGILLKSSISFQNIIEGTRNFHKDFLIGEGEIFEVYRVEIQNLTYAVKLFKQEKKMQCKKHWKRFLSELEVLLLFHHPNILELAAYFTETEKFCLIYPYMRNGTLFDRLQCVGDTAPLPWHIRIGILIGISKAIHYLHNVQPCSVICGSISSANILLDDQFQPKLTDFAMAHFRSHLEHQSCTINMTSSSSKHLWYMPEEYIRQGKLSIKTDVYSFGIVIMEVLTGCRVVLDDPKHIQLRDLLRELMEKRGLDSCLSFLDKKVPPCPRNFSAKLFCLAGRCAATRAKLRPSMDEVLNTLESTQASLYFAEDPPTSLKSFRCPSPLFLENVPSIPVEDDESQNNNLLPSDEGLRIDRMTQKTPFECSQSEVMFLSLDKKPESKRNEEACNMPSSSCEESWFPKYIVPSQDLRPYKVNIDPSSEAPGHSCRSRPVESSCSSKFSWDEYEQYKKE
UniProt P23458: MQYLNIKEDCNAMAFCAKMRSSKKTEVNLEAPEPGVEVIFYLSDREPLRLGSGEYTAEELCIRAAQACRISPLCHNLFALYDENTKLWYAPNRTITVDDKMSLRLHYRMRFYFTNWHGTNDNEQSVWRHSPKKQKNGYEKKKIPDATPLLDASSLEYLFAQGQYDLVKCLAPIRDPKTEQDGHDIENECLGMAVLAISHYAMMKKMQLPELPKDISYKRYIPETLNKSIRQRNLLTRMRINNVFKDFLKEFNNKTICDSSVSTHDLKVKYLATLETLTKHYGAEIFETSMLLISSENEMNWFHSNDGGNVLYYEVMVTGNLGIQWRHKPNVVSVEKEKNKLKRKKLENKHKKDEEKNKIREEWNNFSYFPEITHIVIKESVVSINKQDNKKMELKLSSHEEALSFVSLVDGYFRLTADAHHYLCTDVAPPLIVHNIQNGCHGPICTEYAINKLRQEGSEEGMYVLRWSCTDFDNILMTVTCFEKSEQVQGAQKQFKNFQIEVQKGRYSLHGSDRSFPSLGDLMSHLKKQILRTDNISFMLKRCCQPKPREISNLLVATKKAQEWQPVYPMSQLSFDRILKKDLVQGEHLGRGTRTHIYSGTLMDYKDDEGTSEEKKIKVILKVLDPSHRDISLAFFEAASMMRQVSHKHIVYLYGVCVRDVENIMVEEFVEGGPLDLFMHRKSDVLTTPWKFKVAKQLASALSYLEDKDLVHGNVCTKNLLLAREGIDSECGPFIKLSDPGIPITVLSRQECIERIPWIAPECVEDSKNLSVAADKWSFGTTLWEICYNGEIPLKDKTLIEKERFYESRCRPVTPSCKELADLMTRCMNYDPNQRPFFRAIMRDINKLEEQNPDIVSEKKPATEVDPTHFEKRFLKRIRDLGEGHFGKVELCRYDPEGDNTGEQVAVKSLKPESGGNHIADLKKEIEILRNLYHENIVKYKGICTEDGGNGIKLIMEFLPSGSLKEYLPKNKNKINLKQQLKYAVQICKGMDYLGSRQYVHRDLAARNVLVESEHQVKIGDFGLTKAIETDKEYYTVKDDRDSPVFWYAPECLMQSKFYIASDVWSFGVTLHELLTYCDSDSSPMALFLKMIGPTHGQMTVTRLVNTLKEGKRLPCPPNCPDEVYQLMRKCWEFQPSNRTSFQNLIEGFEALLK
UniProt P06239: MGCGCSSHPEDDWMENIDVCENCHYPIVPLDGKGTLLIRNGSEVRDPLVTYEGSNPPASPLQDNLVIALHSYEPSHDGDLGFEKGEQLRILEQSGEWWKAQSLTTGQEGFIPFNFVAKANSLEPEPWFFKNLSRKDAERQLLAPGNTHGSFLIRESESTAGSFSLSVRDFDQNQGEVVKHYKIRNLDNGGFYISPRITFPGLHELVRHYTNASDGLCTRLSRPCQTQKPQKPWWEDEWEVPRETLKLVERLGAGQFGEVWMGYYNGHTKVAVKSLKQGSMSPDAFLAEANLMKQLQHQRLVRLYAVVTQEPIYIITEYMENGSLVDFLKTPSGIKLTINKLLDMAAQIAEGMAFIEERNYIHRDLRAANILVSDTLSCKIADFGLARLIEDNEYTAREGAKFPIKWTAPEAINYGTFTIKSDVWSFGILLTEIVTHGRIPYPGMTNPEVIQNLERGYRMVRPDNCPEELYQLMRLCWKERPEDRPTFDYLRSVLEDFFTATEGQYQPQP
UniProt P53667: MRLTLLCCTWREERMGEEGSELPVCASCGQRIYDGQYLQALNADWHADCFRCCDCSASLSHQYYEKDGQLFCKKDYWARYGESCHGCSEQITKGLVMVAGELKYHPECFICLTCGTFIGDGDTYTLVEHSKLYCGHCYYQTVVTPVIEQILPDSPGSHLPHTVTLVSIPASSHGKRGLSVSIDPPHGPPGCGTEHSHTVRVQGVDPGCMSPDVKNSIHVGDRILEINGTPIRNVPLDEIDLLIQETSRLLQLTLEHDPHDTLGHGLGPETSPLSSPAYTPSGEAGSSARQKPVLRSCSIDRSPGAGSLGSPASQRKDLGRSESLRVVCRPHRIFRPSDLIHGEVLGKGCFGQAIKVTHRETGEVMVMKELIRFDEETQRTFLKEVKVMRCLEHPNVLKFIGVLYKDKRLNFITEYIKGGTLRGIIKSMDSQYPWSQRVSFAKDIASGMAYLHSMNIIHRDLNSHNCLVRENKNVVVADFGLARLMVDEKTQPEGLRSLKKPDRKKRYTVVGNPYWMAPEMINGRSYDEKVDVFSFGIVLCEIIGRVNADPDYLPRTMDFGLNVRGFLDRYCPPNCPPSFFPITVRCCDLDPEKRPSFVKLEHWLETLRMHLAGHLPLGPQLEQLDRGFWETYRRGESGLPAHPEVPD
UniProt P53671: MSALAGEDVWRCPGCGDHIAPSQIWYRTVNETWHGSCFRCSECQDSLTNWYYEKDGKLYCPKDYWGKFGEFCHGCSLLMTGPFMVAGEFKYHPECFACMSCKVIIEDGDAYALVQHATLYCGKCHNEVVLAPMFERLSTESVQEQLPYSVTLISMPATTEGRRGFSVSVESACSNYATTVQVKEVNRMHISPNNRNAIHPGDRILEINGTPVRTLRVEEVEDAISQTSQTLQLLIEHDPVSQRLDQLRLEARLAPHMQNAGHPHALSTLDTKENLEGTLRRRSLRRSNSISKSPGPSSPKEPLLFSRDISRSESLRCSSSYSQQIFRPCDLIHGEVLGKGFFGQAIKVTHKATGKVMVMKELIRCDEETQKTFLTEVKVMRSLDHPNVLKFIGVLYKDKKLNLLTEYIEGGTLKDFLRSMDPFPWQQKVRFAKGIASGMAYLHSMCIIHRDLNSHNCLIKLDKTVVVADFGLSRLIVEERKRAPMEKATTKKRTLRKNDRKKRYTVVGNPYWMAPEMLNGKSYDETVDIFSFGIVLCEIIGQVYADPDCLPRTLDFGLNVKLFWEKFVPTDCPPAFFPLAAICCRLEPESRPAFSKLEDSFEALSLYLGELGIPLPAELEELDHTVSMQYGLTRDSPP
UniProt Q8IWU2: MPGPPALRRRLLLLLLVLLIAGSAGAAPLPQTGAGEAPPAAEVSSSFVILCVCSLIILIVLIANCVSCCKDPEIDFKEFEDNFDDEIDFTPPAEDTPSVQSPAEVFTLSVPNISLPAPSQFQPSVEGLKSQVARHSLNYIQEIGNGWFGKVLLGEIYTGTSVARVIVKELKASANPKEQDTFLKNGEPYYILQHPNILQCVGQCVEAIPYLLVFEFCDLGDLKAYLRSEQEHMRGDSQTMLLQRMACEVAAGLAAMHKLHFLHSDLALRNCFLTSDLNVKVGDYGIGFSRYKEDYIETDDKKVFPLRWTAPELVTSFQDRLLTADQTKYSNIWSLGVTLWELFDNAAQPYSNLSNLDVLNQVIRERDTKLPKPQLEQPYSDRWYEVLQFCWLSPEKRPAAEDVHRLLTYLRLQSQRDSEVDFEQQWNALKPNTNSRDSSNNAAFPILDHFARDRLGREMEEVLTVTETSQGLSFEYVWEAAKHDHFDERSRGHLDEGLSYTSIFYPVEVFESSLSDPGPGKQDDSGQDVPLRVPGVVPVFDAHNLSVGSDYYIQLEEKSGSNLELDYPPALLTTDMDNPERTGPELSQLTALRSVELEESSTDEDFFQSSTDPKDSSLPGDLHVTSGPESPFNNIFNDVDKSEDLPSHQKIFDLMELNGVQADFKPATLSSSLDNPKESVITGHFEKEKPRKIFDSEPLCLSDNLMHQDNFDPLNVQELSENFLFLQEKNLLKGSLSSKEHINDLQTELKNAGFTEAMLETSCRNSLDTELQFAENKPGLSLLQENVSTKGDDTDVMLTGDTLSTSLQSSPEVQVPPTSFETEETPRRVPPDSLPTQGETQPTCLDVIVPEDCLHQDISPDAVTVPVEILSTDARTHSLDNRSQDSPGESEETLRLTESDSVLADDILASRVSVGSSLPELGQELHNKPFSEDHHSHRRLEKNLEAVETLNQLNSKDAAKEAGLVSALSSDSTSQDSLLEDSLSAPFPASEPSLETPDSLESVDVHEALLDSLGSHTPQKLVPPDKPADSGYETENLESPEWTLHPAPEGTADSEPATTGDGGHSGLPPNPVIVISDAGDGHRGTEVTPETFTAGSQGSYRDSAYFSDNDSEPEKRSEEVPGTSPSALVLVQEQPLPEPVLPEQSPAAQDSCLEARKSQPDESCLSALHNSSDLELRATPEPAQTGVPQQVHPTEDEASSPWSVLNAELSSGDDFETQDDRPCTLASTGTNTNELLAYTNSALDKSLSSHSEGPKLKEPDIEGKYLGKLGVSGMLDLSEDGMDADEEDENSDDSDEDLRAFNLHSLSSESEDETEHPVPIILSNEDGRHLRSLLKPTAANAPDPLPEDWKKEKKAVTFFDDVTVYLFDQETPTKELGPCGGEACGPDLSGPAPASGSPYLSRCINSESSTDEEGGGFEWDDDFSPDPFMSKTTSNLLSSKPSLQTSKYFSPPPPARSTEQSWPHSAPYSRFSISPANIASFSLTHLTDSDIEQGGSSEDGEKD
UniProt P07948: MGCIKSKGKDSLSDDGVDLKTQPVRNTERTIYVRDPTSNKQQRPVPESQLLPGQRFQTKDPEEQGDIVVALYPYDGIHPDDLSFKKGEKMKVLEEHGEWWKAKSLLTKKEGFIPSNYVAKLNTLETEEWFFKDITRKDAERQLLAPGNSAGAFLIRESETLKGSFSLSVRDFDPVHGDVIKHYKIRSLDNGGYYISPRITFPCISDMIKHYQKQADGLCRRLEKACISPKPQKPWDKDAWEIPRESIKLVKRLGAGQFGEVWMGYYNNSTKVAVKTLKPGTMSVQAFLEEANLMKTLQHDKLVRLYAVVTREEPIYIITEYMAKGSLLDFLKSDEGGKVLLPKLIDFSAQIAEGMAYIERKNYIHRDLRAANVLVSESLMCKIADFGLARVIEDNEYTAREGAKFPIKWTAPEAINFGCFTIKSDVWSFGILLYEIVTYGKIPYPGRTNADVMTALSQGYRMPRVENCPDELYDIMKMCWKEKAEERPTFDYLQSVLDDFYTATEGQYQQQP
UniProt Q12851: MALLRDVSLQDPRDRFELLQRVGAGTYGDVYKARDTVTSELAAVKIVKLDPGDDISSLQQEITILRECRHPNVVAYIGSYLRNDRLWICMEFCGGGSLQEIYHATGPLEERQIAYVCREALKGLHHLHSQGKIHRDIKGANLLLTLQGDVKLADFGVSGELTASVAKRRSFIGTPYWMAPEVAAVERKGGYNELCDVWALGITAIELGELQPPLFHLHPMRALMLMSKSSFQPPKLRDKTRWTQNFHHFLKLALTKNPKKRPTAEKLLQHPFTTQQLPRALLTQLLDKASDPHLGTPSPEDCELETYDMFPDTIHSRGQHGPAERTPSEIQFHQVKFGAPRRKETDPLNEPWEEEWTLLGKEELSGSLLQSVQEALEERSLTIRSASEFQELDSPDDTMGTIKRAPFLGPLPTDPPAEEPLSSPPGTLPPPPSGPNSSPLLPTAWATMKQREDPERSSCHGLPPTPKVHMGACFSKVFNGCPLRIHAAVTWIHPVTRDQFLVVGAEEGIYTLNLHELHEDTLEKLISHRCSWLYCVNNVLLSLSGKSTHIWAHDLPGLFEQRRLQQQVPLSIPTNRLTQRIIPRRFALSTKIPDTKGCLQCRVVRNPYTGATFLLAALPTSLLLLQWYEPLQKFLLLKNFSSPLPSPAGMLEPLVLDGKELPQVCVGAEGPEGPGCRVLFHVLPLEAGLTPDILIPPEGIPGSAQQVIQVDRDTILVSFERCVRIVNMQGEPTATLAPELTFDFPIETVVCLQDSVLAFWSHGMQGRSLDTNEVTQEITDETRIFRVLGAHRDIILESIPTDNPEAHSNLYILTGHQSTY

Measured: kinase-Nluc reporter destabilization hit call

Cc1ccc(S(=O)(=O)Nc2ccccc2C=Nc2ccccc2NS(=O)(=O)c2ccc(C)cc2)cc1 (10 µM)
inactive: [1] 0 | [2] 0 | [3] 0 | [4] 0 | [5] 0 | [6] 0 | [7] 0 | [8] 0 | [9] 0 | [10] 0

CO[C@H]1C[C@@H]2CC[C@@H](C)[C@@](O)(O2)C(=O)C(=O)N2CCCC[C@H]2C(=O)O[C@H]([C@H](C)C[C@@H]2CC[C@@H](O)[C@H](OC)C2)CC(=O)[C@H](C)/C=C(\C)[C@@H](O)[C@@H](OC)C(=O)[C@H](C)C[C@H](C)/C=C/C=C/C=C/1C [Rapamycin] (10 µM)
inactive: [1] 0 | [2] 0 | [3] 0 | [4] 0 | [5] 0 | [6] 0 | [7] 0 | [8] 0 | [9] 0 | [10] 0

CNC(=O)c1ccc(-c2cnc3cnc(C(=O)N(C)c4ccc(Cl)cc4)cn23)cc1 (2.5 µM)
inactive: [1] 0 | [2] 0 | [3] 0 | [4] 0 | [5] 0 | [6] 0 | [7] 0 | [8] 0 | [9] 0 | [10] 0

Cc1cc(Nc2cc3ncccc3c(N[C@@H]3C[C@H]4CC[C@@H](C3)N4CCC#N)n2)n[nH]1 [Izencitinib] (10 µM)
inactive: [1] 0 | [2] 0 | [3] 0 | [4] 0 | [5] 0 | [6] 0 | [7] 0 | [8] 0 | [9] 0 | [10] 0

Cc1ccc(-c2c(C(=O)CF)n(CCCO)c3ncnc(N)c23)cc1 (10 µM)
inactive: [1] 0 | [2] 0 | [3] 0 | [4] 0 | [5] 0 | [6] 0 | [7] 0 | [8] 0 | [9] 0 | [10] 0

COc1ccc(C(=O)Nc2sc3c(c2C(N)=O)CCCC3)cc1OC (10 µM)
inactive: [1] 0 | [2] 0 | [3] 0 | [4] 0 | [5] 0 | [6] 0 | [7] 0 | [8] 0 | [9] 0 | [10] 0

COc1cc2c[n+](C)c3c4cc5c(cc4ccc3c2cc1OC)OCO5 [Nitidine (chloride)] (2 µM)
inactive: [1] 0 | [2] 0 | [3] 0 | [4] 0 | [5] 0 | [6] 0 | [7] 0 | [8] 0 | [9] 0 | [10] 0

O=C(NCCCNC(=O)Nc1cccc(C2=NCCN2)c1)Nc1cccc(C2=NCCN2)c1 [p32 Inhibitor M36] (10 µM)
inactive: [1] 0 | [2] 0 | [3] 0 | [4] 0 | [5] 0 | [6] 0 | [7] 0 | [8] 0 | [9] 0 | [10] 0

O=C1NC(=O)C(=Cc2ccc(-c3ccc(F)cc3)o2)S1 (stereo in doubt) (10 µM)
inactive: [1] 0 | [2] 0 | [3] 0 | [4] 0 | [5] 0 | [6] 0 | [7] 0 | [8] 0 | [9] 0 | [10] 0

Arranged by molar mass (falling): part of the list above
Cc1cc(Nc2cc3ncccc3c(N[C@@H]3C[C@H]4CC[C@@H](C3)N4CCC#N)n2)n[nH]1 [Izencitinib] (10 µM)
inactive: [1] 0 | [2] 0 | [3] 0 | [4] 0 | [5] 0 | [6] 0 | [7] 0 | [8] 0 | [9] 0 | [10] 0

COc1cc2c[n+](C)c3c4cc5c(cc4ccc3c2cc1OC)OCO5 [Nitidine (chloride)] (2 µM)
inactive: [1] 0 | [2] 0 | [3] 0 | [4] 0 | [5] 0 | [6] 0 | [7] 0 | [8] 0 | [9] 0 | [10] 0

Cc1ccc(-c2c(C(=O)CF)n(CCCO)c3ncnc(N)c23)cc1 (10 µM)
inactive: [1] 0 | [2] 0 | [3] 0 | [4] 0 | [5] 0 | [6] 0 | [7] 0 | [8] 0 | [9] 0 | [10] 0

O=C1NC(=O)C(=Cc2ccc(-c3ccc(F)cc3)o2)S1 (stereo in doubt) (10 µM)
inactive: [1] 0 | [2] 0 | [3] 0 | [4] 0 | [5] 0 | [6] 0 | [7] 0 | [8] 0 | [9] 0 | [10] 0

(more compounds)

Cn1cc(-c2ccc(CNc3cc(-c4cnc5cc(OCCCN6CCCC6)ccn45)ncn3)cc2)cn1 (10 µM)
inactive: [1] 0 | [2] 0 | [3] 0 | [4] 0 | [5] 0 | [6] 0 | [7] 0 | [8] 0 | [9] 0 | [10] 0

CC(C)(NS(=O)(=O)c1ccc2c(Cl)cnc(N=C(N)N)c2c1)C(=O)O (10 µM)
inactive: [1] 0 | [2] 0 | [3] 0 | [4] 0 | [5] 0 | [6] 0 | [7] 0 | [8] 0 | [9] 0 | [10] 0

O=c1cc(O)cc(/C=C/c2ccc(O)c(O)c2)o1 [Hispidin] (10 µM)
inactive: [1] 0 | [2] 0 | [3] 0 | [4] 0 | [5] 0 | [6] 0 | [7] 0 | [8] 0 | [9] 0 | [10] 0

CN(CCNc1ccc2ncc(-c3ccc(C(N)=O)cc3)n2n1)C(=O)OC(C)(C)C (10 µM)
inactive: [1] 0 | [2] 0 | [3] 0 | [4] 0 | [5] 0 | [6] 0 | [7] 0 | [8] 0 | [9] 0 | [10] 0

C[C@@H](c1ccc2nccn2c1)n1nnc2ncc(-c3cnn(C)c3)nc21 [Savolitinib] (10 µM)
inactive: [1] 0 | [2] 0 | [3] 0 | [4] 0 | [5] 0 | [6] 0 | [7] 0 | [8] 0 | [9] 0 | [10] 0

C=C1C(=O)O[C@@H]2C[C@@]3(C)CCC[C@H](C)C3=C[C@H]12 [Alantolactone] (10 µM)
inactive: [1] 0 | [2] 0 | [3] 0 | [4] 0 | [5] 0 | [6] 0 | [7] 0 | [8] 0 | [9] 0 | [10] 0

Cc1csc(-c2nnc(Nc3ccc(Oc4ncccc4-c4ccnc(N)n4)cc3)c3ccccc23)c1 (2.5 µM)
inactive: [1] 0 | [2] 0 | [3] 0 | [4] 0 | [5] 0 | [6] 0 | [7] 0 | [8] 0 | [9] 0 | [10] 0

CCOc1cc(C(=O)N2CCC(N3CCN(C)CC3)CC2)ccc1Nc1ncc2c(n1)N(C1CCCC1)c1ccccc1C(=O)N2C (10 µM)
inactive: [1] 0 | [2] 0 | [3] 0 | [4] 0 | [5] 0 | [6] 0 | [7] 0 | [8] 0 | [9] 0 | [10] 0

N#Cc1ccc2ncnc(NC3CCC(N4CCOCC4)CC3)c2c1 (stereo not given) (10 µM)
inactive: [1] 0 | [2] 0 | [3] 0 | [4] 0 | [5] 0 | [6] 0 | [7] 0 | [8] 0 | [9] 0 | [10] 0

Reference: the supplement of paper PMC12823440, “Inhibitors supercharge kinase turnover through native proteolytic circuits” (Nature, 2025)
